The record followed here is paper PMC13190601.

Chains of the proteins cited; added tags and fusions are not shown. Chains listed by the source or under a name are the forms on record and can include a tag or linker.
GmSAUR (Glycine max), one chain, as listed by the source: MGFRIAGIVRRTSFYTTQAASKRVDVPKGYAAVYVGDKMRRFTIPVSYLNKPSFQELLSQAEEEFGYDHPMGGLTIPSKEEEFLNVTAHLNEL

The exact form of at least one protein or probe is not confirmed.

The subject of data set [1] is GmSAUR (Glycine max). The experiment in a line: EMSA. The conditions noted are these: not given; EMSA as previously described (Sun et al., 2023); recombinant protein; protein details: GST.
The subject of data set [2] is GmSAUR (Glycine max). The experiment in a line: competition with a labelled probe. The conditions noted are these: 50- and 100-fold molar excess of unlabeled DNA reduces the complex; not given; EMSA as previously described (Sun et al., 2023); recombinant protein; protein details: GST.

“GACTAAGTTGAAGATGCAGTTGCTATACAACCTCTCATTCAAGTAC (double strand) [GmMYB176 promoter probe]”: in data set [1], the binding result is listed as “binds”.

In the case of “GACTAAGTTGAAGATGCAGTTGCTATACAACCTCTCATTCAAGTAC (double strand) [GmMYB176 promoter unlabeled competitor]”, the binding result in data set [2] is reported as “binds”.
